These are yes or no findings as the source states them, for the method shown. Binding seen in cells or lysates may run through a third protein. These calls come from enrichment with a bait or labelling near it, and not all partners need be listed. No binding means not detected with the bait.

Sequences of proteins named here, by UniProt entry; tags and fusion partners are left off.
UniProt Q8VIG1: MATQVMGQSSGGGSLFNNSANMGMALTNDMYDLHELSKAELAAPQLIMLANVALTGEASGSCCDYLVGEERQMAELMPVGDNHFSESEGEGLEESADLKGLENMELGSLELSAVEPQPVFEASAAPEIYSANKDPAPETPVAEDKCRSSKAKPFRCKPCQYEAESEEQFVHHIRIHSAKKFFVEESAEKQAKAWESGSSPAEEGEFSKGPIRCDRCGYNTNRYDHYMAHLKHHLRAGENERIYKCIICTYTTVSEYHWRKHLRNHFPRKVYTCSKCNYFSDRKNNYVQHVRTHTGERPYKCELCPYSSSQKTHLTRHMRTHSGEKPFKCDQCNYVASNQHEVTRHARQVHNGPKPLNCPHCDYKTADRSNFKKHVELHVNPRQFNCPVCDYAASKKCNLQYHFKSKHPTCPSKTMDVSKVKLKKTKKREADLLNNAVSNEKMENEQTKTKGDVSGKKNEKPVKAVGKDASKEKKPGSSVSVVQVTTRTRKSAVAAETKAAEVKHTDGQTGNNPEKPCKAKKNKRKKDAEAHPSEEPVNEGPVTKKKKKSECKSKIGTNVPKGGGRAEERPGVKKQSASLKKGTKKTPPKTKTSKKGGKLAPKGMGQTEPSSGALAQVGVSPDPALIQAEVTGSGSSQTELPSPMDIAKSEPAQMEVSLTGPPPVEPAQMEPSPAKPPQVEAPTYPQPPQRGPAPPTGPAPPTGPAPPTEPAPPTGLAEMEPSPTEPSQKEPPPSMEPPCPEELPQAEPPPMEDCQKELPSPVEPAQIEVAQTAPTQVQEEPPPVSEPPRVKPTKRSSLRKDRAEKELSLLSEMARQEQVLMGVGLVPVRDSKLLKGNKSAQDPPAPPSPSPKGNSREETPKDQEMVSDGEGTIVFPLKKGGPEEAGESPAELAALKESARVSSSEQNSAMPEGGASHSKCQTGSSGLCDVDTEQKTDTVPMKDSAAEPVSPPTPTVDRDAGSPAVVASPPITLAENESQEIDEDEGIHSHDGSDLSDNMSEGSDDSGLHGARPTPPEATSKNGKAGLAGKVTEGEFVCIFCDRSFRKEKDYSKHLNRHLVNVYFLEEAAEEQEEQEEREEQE
UniProt Q921E6: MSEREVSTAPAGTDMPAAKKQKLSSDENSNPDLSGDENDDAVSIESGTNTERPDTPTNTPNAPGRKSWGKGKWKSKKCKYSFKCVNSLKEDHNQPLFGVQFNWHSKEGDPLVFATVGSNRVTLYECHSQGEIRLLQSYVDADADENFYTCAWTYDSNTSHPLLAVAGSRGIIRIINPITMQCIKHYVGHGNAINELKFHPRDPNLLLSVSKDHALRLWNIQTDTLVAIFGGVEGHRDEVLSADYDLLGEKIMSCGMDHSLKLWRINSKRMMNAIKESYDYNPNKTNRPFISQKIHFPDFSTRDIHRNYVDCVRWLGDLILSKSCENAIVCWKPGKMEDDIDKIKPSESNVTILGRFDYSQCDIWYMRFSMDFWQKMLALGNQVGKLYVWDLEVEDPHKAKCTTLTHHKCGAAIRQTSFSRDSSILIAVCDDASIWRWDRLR
UniProt P70288: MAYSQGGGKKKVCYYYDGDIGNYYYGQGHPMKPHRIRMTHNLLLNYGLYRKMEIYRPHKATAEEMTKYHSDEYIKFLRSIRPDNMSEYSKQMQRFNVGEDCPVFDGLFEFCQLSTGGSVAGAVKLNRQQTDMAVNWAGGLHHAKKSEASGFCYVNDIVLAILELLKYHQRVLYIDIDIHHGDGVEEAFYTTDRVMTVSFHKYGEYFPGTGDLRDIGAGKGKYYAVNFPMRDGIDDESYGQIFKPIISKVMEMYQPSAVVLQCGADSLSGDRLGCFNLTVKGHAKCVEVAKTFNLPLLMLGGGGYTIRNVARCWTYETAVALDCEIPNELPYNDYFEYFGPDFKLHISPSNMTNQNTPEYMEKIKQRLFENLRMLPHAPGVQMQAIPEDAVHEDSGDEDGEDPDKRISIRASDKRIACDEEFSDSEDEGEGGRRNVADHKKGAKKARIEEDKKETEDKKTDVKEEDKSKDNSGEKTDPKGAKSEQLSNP
UniProt Q8K019: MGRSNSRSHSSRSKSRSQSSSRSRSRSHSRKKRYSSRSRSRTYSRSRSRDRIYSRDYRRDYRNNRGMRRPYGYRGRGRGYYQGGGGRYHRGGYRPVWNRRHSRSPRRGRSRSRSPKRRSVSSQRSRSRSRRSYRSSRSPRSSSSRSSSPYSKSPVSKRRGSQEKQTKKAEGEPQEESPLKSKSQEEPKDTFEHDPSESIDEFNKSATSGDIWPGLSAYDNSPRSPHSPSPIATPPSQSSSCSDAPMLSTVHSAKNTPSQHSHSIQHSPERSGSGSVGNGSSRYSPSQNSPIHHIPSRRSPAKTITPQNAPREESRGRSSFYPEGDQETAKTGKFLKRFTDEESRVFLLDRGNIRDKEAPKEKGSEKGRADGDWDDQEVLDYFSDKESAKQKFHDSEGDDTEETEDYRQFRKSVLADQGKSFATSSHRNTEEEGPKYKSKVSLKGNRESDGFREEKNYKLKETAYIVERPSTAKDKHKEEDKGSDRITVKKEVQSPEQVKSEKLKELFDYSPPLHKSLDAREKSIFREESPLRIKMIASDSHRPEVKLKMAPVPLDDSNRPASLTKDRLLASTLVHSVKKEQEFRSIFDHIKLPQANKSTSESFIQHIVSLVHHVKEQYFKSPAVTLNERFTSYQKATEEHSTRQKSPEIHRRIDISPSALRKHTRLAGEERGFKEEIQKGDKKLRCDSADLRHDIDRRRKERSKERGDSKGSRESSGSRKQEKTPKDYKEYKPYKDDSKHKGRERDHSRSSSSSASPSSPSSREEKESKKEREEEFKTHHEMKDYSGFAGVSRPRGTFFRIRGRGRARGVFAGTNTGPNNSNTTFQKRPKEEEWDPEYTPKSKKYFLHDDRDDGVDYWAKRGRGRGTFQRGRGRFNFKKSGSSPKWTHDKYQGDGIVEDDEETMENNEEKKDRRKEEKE
UniProt O88286: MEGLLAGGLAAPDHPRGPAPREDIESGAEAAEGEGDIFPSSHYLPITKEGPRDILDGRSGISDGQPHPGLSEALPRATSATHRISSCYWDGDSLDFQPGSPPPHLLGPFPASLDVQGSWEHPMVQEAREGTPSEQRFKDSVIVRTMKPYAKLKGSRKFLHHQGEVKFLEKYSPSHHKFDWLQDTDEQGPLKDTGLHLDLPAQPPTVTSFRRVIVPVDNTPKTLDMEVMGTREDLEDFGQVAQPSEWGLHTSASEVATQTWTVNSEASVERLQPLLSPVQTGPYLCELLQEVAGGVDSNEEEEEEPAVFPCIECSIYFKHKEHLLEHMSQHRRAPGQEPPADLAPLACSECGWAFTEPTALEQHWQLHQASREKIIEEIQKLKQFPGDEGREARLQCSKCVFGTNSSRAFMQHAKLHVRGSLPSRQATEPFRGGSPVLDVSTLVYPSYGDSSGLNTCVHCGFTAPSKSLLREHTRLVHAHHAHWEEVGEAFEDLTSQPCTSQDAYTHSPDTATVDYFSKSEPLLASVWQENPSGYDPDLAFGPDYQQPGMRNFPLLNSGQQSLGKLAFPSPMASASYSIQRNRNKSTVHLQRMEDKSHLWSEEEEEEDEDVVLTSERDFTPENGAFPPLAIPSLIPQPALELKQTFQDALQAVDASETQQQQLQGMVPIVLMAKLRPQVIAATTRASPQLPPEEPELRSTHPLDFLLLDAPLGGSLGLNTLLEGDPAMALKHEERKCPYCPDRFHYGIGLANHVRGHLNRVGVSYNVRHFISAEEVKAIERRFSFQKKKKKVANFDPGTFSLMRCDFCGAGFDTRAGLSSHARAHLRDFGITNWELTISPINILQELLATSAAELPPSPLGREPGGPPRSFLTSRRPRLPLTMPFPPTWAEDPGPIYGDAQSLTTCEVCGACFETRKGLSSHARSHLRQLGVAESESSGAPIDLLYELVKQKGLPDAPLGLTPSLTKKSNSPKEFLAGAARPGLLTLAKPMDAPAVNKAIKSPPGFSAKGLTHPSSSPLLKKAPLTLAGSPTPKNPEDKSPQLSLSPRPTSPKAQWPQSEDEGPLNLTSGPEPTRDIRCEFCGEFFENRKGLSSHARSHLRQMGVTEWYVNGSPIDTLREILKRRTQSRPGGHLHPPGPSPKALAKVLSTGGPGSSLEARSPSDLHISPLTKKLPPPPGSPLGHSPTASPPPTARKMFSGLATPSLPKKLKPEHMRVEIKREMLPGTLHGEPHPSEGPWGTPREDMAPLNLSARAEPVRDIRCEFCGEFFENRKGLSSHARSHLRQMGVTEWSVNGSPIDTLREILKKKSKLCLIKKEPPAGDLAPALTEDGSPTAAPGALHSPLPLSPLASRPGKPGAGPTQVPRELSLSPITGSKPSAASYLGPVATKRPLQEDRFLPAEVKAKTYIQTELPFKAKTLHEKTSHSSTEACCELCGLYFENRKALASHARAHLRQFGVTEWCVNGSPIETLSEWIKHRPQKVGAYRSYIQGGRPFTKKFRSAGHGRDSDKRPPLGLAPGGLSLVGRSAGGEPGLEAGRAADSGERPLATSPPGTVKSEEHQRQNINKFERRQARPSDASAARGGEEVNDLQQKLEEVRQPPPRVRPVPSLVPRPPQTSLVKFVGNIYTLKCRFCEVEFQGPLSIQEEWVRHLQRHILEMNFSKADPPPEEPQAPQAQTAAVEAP
UniProt Q9D0D4: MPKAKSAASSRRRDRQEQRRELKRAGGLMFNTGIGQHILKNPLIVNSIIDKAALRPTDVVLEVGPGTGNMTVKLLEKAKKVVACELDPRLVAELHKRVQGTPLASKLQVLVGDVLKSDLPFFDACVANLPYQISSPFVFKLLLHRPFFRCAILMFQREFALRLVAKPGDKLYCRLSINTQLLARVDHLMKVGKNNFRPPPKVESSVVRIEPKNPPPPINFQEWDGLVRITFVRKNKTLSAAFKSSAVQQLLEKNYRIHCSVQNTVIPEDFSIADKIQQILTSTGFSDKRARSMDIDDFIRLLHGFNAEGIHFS
UniProt O09106: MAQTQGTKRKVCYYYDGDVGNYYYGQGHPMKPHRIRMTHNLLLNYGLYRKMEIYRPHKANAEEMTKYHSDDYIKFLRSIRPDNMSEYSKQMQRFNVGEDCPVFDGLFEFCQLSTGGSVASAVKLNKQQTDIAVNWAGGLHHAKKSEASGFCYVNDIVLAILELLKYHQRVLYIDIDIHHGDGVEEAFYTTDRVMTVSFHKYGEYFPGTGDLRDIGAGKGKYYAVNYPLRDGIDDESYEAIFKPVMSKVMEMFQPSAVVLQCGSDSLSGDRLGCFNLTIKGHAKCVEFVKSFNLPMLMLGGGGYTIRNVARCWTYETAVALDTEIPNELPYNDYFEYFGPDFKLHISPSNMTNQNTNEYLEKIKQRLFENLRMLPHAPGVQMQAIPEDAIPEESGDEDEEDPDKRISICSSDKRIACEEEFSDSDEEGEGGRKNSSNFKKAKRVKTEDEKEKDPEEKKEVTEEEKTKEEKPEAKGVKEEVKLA
UniProt Q91ZW3: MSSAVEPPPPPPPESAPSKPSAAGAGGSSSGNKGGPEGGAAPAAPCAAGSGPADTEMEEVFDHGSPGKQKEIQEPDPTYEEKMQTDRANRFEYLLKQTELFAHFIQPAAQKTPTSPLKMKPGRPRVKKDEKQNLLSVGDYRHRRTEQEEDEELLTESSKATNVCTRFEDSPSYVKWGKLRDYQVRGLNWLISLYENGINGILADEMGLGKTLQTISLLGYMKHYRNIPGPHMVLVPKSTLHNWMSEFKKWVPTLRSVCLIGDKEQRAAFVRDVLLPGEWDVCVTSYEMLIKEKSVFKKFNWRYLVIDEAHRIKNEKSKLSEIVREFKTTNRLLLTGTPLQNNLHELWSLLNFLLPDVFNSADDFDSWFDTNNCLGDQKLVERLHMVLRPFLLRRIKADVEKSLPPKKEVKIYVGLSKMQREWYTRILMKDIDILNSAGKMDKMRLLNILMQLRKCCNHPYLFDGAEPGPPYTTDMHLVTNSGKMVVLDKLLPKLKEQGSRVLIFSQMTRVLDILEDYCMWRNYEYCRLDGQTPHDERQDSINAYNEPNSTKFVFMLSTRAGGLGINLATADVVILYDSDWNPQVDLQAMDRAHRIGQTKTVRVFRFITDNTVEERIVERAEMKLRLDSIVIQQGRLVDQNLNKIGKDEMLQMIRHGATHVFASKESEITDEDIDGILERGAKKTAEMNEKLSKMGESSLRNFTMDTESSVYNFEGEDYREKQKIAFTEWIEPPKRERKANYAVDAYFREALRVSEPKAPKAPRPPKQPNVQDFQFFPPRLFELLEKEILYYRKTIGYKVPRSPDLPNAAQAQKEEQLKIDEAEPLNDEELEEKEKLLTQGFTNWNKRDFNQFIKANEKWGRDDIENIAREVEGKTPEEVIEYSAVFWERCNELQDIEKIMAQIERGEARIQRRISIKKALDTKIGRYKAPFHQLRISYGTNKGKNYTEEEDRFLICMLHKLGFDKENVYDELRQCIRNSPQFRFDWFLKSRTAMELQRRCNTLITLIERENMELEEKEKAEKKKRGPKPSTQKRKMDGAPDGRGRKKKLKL

Our source for the binding values is paper PMC4371837.

The target of one assay is Flag-BioT-mREST (mouse REST tagged with a biotin acceptor sequence) (mouse) (UniProt Q8VIG1). Description: affinity purification with mass spectrometry; streptavidin pull-downs of biotin-tagged REST from nuclear extracts of mouse ESCs; replicates; BirA control.
Eed (from UniProt Q921E6 1-441): the binding entry is “no binding”. Suz12 (from UniProt Q80U70 1-741): the binding result is “binds”.

The next assay shares this target. Kind of assay: affinity purification with mass spectrometry; biotin-tagged REST captured on streptavidin M-280 magnetic beads from cleared whole-cell lysate of mouse ESCs (clone #60), 4°C, 3 hr, 50 mM Tris-Cl pH 7.5, 150 mM NaCl, 0.5% Triton X-100, 0.5 mM EDTA, 10% glycerol; MudPIT on three independent purifications; parental BirA-J1 cells as control.
With “HDAC2 (from UniProt P70288 1-488) (enzyme)”, the binding entry was “binds”. Take Bclafi (from UniProt Q8K019 1-919): the binding entry is given as “binds”. Wiz (from UniProt O88286 1-1684): the binding result is listed as “binds”. Consider Mdc1 (from UniProt Q5PSV9 1-1707), for which the binding entry is given as “binds”.

Consider “Ehmt2/G9a (from UniProt Q9Z148 1-1263) (enzyme)”, for which the binding result is recorded as “binds”. As to Dimti (from UniProt Q9D0D4 1-313), the binding entry is given as “binds”. The same measure, in the same setting: to Pdcd11 (from UniProt Q6NS46 1-1862) belongs “binds”. For “SMCX (Jarid1C) (from UniProt P41230 1-1554) (enzyme)”, the binding entry is “no binding”. Regarding Ssrpi (from UniProt Q08943 1-708), the binding result is on record as “binds”.

As to D1Pas1 (from UniProt P16381 1-660), the binding result is “binds”. Same read-out and setting: next, “HDAC1 (from UniProt O09106 1-482) (enzyme)”: “binds”. On the same count and under the same terms, to Smarca5 (from UniProt Q91ZW3 1-1051) belongs “binds”.
